Consider two molecules from paper PMC6195804.

Sequences of proteins named here, by UniProt entry; tags and fusion partners are left off.
UniProt P15311: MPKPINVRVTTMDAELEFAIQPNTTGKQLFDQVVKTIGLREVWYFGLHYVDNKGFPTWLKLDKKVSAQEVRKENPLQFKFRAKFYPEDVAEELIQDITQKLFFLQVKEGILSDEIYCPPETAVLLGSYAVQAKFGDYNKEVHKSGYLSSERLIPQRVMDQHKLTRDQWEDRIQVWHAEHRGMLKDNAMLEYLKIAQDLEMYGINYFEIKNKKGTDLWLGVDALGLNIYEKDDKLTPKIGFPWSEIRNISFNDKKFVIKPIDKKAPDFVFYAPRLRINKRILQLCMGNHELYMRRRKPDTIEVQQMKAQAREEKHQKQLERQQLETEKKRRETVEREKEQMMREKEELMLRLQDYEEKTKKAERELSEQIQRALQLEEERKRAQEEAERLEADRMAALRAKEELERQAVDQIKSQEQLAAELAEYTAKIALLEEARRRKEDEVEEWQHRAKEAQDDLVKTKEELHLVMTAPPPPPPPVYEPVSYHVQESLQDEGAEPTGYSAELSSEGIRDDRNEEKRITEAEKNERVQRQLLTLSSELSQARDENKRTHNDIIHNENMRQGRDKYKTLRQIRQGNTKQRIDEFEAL

Assay [1] deals with T1, aquaporin-3 (human (endogenous in RL95-2)) (UniProt Q92482).
T1 sequence: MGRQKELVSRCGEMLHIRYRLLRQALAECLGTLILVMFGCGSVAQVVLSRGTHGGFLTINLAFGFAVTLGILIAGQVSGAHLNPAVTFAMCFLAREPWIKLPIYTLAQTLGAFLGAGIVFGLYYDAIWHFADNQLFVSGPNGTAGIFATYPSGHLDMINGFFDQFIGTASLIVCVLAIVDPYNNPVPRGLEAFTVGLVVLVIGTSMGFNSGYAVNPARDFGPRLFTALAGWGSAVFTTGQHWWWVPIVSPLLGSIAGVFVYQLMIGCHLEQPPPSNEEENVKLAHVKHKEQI
The assay is described as follows: co-IP; RL95-2 lysate (25 mM HEPES, 100 mM NaCl, 1 mM EDTA, 0.5 mM MgCl2, 10% glycerol, 1% Nonidet P-40, pH 7.5); anti-AQP3 or anti-ezrin antibody at 4°C overnight, protein A/G agarose beads; IgG as negative control; western blot.

In assay [2] the target is ezrin (human (endogenous in RL95-2)) (UniProt P15311). Described as above.

These are yes or no findings as the source states them, for the method shown. Binding seen in cells or lysates may run through a third protein. Some binding calls cover weakened binding; strength is not graded here.

Regarding ezrin (from UniProt P15311 1-586), in assay [1], the binding result is on record as “binds”.

B1: aquaporin-3 (protein, UniProt Q92482 1-292)
chain: T1 sequence
In the case of B1, the binding result in assay [2] was “binds”.
